# According to patent US20210363259A1 (Biogen, published 2021):
# Amino acid sequences for entries named in this document (tags omitted). A change or cut given only in a name is not applied to a line headed by its entry.
# UniProt P06756: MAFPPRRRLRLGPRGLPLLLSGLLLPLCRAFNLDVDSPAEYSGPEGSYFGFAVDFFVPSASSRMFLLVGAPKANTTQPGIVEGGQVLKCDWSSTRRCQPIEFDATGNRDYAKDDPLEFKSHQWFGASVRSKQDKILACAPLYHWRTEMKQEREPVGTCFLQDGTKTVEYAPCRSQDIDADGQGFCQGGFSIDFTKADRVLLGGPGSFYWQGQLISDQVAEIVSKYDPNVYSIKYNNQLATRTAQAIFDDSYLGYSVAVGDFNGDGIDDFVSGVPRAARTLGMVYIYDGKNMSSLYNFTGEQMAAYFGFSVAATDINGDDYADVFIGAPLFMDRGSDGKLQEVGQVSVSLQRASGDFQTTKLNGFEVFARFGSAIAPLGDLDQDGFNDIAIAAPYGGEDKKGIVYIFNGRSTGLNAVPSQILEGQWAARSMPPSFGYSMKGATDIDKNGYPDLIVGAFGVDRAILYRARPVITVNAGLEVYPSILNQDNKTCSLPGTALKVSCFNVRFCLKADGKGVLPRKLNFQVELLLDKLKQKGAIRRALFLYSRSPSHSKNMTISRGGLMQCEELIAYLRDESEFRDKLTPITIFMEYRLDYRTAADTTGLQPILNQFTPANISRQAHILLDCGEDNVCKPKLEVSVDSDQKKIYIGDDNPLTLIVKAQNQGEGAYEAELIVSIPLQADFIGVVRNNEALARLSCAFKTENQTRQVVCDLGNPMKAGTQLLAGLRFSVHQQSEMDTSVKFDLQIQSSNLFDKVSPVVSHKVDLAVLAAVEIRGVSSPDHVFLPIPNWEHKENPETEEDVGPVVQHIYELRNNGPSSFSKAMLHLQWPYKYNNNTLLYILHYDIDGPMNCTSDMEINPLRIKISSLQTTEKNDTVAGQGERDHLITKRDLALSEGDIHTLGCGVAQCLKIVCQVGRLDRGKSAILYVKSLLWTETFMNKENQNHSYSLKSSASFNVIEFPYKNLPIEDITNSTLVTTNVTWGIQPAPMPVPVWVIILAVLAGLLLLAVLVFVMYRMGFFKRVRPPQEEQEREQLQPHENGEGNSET
# These are yes or no findings as the source states them, for the method shown. Some results given as binding are weak or reduced against the parent protein; the word gives no strength.
# Target: T1, integrin αvβ6 (human, UniProt P06756 31-1048; P18564 22-788)
# T1 construct: also called the antigen
# Test: structure-activity relationship studies on forced-oxidized STX-100
binder,measurement,value
"STX-100 (antibody, human IgG1, kappa, V domains shown, Humanized human IgG1/human kappa monoclonal antibody; It was tested as drug product in citrate/arginine/methionine/PS80 formulations; also called BG00011; BG11) VH: EVQLVESGGGLVQPGGSLRLSCAASGFTFSRYVMSWVRQAPGKGLEWVASISSGGRMYYPDTVKGRFTISRDNAKNSLYLQMNSLRAEDTAVYYCARGSIYDGYYVFPYWGQGTLVTVSS VL: EIVLTQSPATLSLSPGERATLSCSASSSVSSSYLYWYQQKPGQAPRLLIYSTSNLASGIPARFSGSGSGTDFTLTISSLEPEDFAVYYCHQWSTYPPTFGGGTKVEIKR",binding,binds
